Substitutions are numbered along the chain they refer to.
B1: SEQ ID NO 71 (designed binder)
chain: AEAKYAKEKYNAYYEIWQLPNLTKYQKAAFIGKLQDDPSQSSELLSEAKKLNDSQAPK
B2: SEQ ID NO 73 (designed binder)
chain: B1 chain with N11M, Y14F, Y25W
B3: SEQ ID NO 74 (designed binder)
chain: B1 chain with N11T, Y14F
B4: SEQ ID NO 75 (designed binder)
chain: B1 chain with N11S, Y14F
B5: SEQ ID NO 76 (designed binder)
chain: B1 chain with N11T
B6: SEQ ID NO 77 (designed binder)
chain: B1 chain with N11S
B7: SEQ ID NO 78 (designed binder)
chain: B1 chain with N11A, Y25M
B8: SEQ ID NO 79 (designed binder)
chain: B1 chain with N11E, Y25M
B9: SEQ ID NO 80 (designed binder)
chain: B1 chain with N11S, K24R
B10: SEQ ID NO 81 (designed binder)
chain: B1 chain with K24R
B11: SEQ ID NO 82 (designed binder)
chain: B1 chain with N11T, K24R, Y25M
B12: SEQ ID NO 85 (designed binder)
chain: B1 chain with N11A, Q18E, K24V, Y25R
B13: SEQ ID NO 87 (designed binder)
chain: B1 chain with N11S, Y14F, Y25R, Q35E
B14: SEQ ID NO 88 (designed binder)
chain: B1 chain with N11M, Y14F, Y25R
B15: SEQ ID NO 89 (designed binder)
chain: B1 chain with Y14F, Y25W
B16: SEQ ID NO 90 (designed binder)
chain: B1 chain with N11E, Y14F
B17: SEQ ID NO 91 (designed binder)
chain: B1 chain with N11A, G32S
B18: SEQ ID NO 93 (designed binder)
chain: B1 chain with N11E, Y25F
B19: SEQ ID NO 94 (designed binder)
chain: B1 chain with N11A, Y25F
B20: SEQ ID NO 95 (designed binder)
chain: B1 chain with K24N, Y25F
B21: SEQ ID NO 96 (designed binder)
chain: B1 chain with N11T, Y25F
B22: SEQ ID NO 97 (designed binder)
chain: B1 chain with N11S, Y25F
B23: SEQ ID NO 98 (designed binder)
chain: B1 chain with N11L, Y25M
B24: SEQ ID NO 99 (designed binder)
chain: B1 chain with Y25M
B25: SEQ ID NO 100 (designed binder)
chain: B1 chain with Y25N
B26: SEQ ID NO 101 (designed binder)
chain: B1 chain with N11S, Y25N
B27: SEQ ID NO 103 (designed binder)
chain: B1 chain with N11E, Y25T
B28: SEQ ID NO 104 (designed binder)
chain: B1 chain with N11E, K24V, Y25R
B29: SEQ ID NO 105 (designed binder)
chain: B1 chain with K24V, Y25R
B30: Z08700-His6 (designed binder)
chain: AEAKYAKEKYSAYYEIWQLPNLTKYQKAAFIGKLQDDPSQSSELLSEAKKLNDSQAPKLEHHHHHH
B31: Z08696-His6 (designed binder)
chain: B30 chain with Y14F
B32: Z08701-His6 (designed binder)
chain: B30 chain with S11A, Y25M
B33: Z08702-His6 (designed binder)
chain: B30 chain with S11E, Y25M

By UniProt entry, the sequences of proteins in these tests, tags left out. Where a name states a change or a piece, a line headed by the entry shows the natural chain unless it says otherwise. Residues count along the entry.
UniProt P21860, 20-643 limits assumed: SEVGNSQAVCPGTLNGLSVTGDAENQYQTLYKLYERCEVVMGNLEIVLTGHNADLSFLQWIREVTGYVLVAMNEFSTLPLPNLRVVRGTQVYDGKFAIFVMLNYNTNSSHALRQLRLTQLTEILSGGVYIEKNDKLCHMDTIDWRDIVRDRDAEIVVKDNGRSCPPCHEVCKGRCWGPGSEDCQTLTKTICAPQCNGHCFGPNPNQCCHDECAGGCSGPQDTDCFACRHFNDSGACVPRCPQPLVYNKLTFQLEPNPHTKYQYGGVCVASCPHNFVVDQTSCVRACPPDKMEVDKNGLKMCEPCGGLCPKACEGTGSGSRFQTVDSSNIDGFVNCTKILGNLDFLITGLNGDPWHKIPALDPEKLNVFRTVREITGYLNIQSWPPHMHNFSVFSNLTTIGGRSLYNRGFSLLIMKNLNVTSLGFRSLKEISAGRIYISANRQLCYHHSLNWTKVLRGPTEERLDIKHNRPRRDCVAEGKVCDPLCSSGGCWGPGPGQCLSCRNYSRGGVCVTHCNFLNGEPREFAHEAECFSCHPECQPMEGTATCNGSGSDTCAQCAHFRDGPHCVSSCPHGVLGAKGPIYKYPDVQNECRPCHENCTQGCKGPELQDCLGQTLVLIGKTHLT

Molecular target: T1, extracellular domain of HER3 (Sino Biological Inc., cat. no. 10201-H08H) (UniProt P21860 20-643, biotinylated (biotin carboxylic acid, succinimidyl ester))
T1 construct: extracellular domain; also called HER3-ECD
Test: flow cytometry, on-cell affinity ranking of S. carnosus-displayed clones with 0.5 or 2 nM biotinylated HER3-ECD

| Binder | binding result |
| --- | --- |
| B1 | binds |
| B2 | binds |
| B3 | binds |
| B4 | binds |
| B5 | binds |
| B6 | binds |
| B7 | binds |
| B8 | binds |
| B9 | binds |
| B10 | binds |
| B11 | binds |
| B12 | binds |
| B13 | binds |
| B14 | binds |
| B15 | binds |
| B16 | binds |
| B17 | binds |
| B18 | binds |
| B19 | binds |
| B20 | binds |
| B21 | binds |
| B22 | binds |
| B23 | binds |
| B24 | binds |
| B25 | binds |
| B26 | binds |
| B27 | binds |
| B28 | binds |
| B29 | binds |

Molecular target: T2, recombinant human HER3/Fc chimera (R&D Systems, cat. no. 348-RB-050) (human, UniProt P21860 20-643)
T2 construct: extracellular domain; Bought reagent; Fc part of the bought chimera not given
Test: SPR off-rate ranking, 25 nM Z variant over immobilized human HER3-Fc; against the previously reported koff of Z05417

| Binder | fold reduction of off-rate compared to Z05417 [fold] |
| --- | --- |
| B30 | ≥ 8 |
| B31 | ≥ 8 |
| B32 | ≥ 8 |
| B33 | ≥ 8 |
